Experimental data as given in PubChem BioAssay AID2551 (National Center for Advancing Translational Sciences (NCATS), 2010).
Hit rate of the full screen: of about 310,000 compounds, about 17,000 (5.5%) were called active. The shares of active, inactive and inconclusive entries below differ from those in the screen. Calls follow the shape of the dose curve; as a rule, active = well fitted inhibition curve with a large enough effect; inconclusive = small, poorly fitted or top-dose-only effect, or effect the other way; inactive = no such curve, though single readings can be large or run the other way. A potency beside an inconclusive call is a rough fit, not a confirmed value.

Protein sequences, listed by entry. Tags and fused reporters are not part of them. Lines headed by an entry give the natural chain unless they say otherwise; changes in a name come on top.
UniProt P51450: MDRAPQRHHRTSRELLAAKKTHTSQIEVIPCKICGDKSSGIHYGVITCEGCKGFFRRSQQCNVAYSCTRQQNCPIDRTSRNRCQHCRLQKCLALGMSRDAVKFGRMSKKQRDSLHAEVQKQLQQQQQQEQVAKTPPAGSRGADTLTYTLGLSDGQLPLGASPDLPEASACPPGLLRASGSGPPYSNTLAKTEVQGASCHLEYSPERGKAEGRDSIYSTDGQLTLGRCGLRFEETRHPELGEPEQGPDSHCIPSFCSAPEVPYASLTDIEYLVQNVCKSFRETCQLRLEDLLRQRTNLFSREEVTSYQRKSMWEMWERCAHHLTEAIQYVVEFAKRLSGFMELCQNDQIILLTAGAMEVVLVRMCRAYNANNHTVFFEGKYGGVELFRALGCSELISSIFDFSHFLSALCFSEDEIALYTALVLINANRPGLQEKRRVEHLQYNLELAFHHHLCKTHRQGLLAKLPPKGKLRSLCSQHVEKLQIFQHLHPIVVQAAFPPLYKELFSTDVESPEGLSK

Molecular target: Nuclear receptor ROR-gamma (Mus musculus) (UniProt P51450)
Experiment: qHTS for inhibitors of ROR gamma transcriptional activity; also: nearly all actives have a fitted effect of over 60% in size
Conditions: Drosophila S2 Gal4-RORgamma UAS-luciferase reporter, 20 h; series mostly up to 53.6 µM
Procedure, shortened: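 Stable Schneider cell line, Gal4 DNA-binding domain fused to ROR gamma, UAS-luciferase. Cmpd 1 hr RT → CuSO4 700 uM final → 20 hr RT → luciferase reagent 10 min → luminescence.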
Potency is read from the fitted curve at half-maximal effect.

Row | Structure (SMILES) | Potency
1 | COC(=O)[C@@H](NC(=O)N1CCN(c2cccc(C(F)(F)F)c2)CC1)C(C)C | inconclusive: 0.0282 µM [inhibitor, full curve, poor fit]
2 | CC12CN(C(=O)c3cccc([N+](=O)[O-])c3)C3(C#N)CC1CCC23C (stereo not given) | inactive
3 | CCc1ccc(N2CC(C(=O)Nc3nccs3)CC2=O)cc1 (stereo not given) | inconclusive: 11.2 µM [inhibitor, single point]
4 | Cc1ccc(-c2c[n+](CC(=O)Nc3cc(=O)n(C)c(=O)n3C)c3n2CCC3)cc1 | inactive
5 | CC(C)(C)C(=O)Nc1ccc(C(=O)OC2CCCCC2)cc1 | inactive
6 | CC(C)c1c(C#N)c(N)nc(SCC(=O)c2cc3ccccc3oc2=O)c1C#N | inactive
7 | O=C(Nc1ccc(Nc2ccccc2)cc1)c1ccc(Br)o1 | inconclusive: 20 µM [activator, partial curve, poor fit]
8 | CCCCCC(O)(c1ccc(OC)cc1)C(CN1CCOCC1)c1ccccc1 (stereo not given) | inconclusive: 35.5 µM [activator, single point]
9 | Cc1ccc(NC(=S)NCC2CCN(C(C)c3ccccc3)C2)cc1 (stereo not given) | inconclusive: 17.8 µM [inhibitor, single point]
10 | CCOc1ccc(NC(=S)NCc2ccco2)cc1 | active: 14.1 µM
11 | CCC1(C)CC(CCN(Cc2ccco2)C(C)=O)(c2ccccc2)CCO1 (stereo not given) | inconclusive: 35.5 µM [activator, single point]
12 | O=C1CC(=O)CC(c2ccccc2Cl)C1 | inconclusive: 11.2 µM [activator, single point]
13 | CCCNc1nc2c(c(=O)n(C)c(=O)n2C)n1CCc1ccccc1 | inconclusive: 0.562 µM [inhibitor, single point]
14 | Cc1nc2ccccc2c(=O)n1/N=C/c1cn(-c2ccccc2)nc1-c1cccs1 | inconclusive: 15.8 µM [inhibitor, single point]
15 | CC(/C(O)=C(\C#N)c1nc2ccccc2n1C)N1C(=O)c2ccccc2C1=O (stereo not given) | inconclusive: 5.01 µM [inhibitor, single point]
16 | Cc1cccc(C(=O)Oc2coc(CSc3nnc(NC(=O)C4CC4)s3)cc2=O)c1 | inconclusive: 35.5 µM [activator, single point]
17 | Clc1cc(Br)ccc1OCCOCCOc1cccc2cccnc12 | inconclusive: 14.1 µM [inhibitor, partial curve, poor fit]
18 | O=c1[nH]c2ccc(S(=O)(=O)N3CCCCC3)cc2o1 | inconclusive: 0.562 µM [inhibitor, full curve, poor fit]
19 | CCOC(=O)c1c(NC(=O)CC2SC(N)=NC2=O)sc2c1CCCC2 (stereo not given) | inconclusive: 1.78 µM [activator, partial curve]
20 | Cc1cc2c(cc1C)N(CC(=O)N1CCCC1)C(=O)CC(c1ccccc1)=N2 | inconclusive: 11.2 µM [activator, partial curve]
21 | Cc1cc(Nc2ccccc2Cl)nc(-c2ccccc2O)n1 | inconclusive: 22.4 µM [activator, single point]
22 | COc1cccc(OCCn2cc(/C=N/NC(=O)c3ccncc3)c3ccccc32)c1 | inconclusive: 12.6 µM [inhibitor, single point]
23 | Cn1c(=O)c2c(ncn2CC(=O)N2CCN(c3ccc(F)cc3)CC2)n(C)c1=O | inactive

Row | Structure (SMILES) | Potency
24 | Cc1nc(Nc2c(Cl)cccc2Cl)sc1C(=O)Nc1ccccc1 | inconclusive: 31.6 µM [activator, single point]
25 | Oc1ccc(CN2CCN(c3ncccn3)CC2)cc1 | inactive
26 | O=S(=O)(c1ccc(F)cc1)n1ccc2cccnc21 | inconclusive: 5.62 µM [activator, full curve]
27 | Cc1ccccc1OCC(=O)NNC(=S)NC(=O)c1ccco1 | active: 12.6 µM
28 | O=C(Nc1ccc(Br)cc1F)c1ccc2c(c1)OCCO2 | active: 7.94 µM
29 | COc1ccccc1NC(=S)N(Cc1cccnc1)Cc1ccccc1Cl | inconclusive: 10 µM [inhibitor, single point]
30 | CCc1ccccc1NC(=O)CN(C)C(=O)Cn1ncc(Cl)c(Cl)c1=O | inconclusive: 14.1 µM [inhibitor, single point]
31 | O=C(CSc1nc2ccccc2c(=O)[nH]1)Nc1ccccc1N1CCOCC1 | inactive
32 | COc1ccc2c3c(c(=O)oc2c1OCC(N)=O)CCCC3 | inactive
33 | Cc1cc(C)c(S(=O)(=O)Nc2ccnc(-c3cccnc3)n2)c(C)c1 | inconclusive: 35.5 µM [activator, single point]
34 | CCc1ccc(NC(=O)c2noc3c2CCC3)cc1 | inconclusive: 12.6 µM [inhibitor, single point]
35 | CCOP(=O)(Cc1ccc(C(C)(C)CC(C)=O)o1)OCC | inactive
36 | O=C(Cn1c(SCc2ccccc2)nc2ccccc21)N1CCOCC1 | inconclusive: 10 µM [activator, partial curve]
37 | Cc1cccc(OCC(=O)NCC(=O)N/N=C/c2ccc(O)cc2O)c1 | inconclusive: 7.08 µM [inhibitor, full curve, poor fit]
38 | O=C(CCCc1nc(-c2ccc(Cl)cc2)no1)NC1CCCCC1 | inconclusive: 22.4 µM [activator, single point]
39 | O=C(NC(=S)N(CCc1ccccc1)CCc1ccccc1)c1ccco1 | active: 0.112 µM
40 | CCCS(=O)(=O)c1nc(S(=O)(=O)c2ccc(C)cc2)c(N2CCN(CC)CC2)s1 | inactive
41 | CCCCCCC1/C(=N\NC(=O)c2ccccc2)CCC1C(=O)OC (stereo not given) | inconclusive: 15.8 µM [inhibitor, partial curve, poor fit]
42 | O=C(N/N=C/c1ccccn1)c1ccc([N+](=O)[O-])cc1Cl | active: 11.2 µM
43 | Cc1cc(C)nc(-n2nc(C)cc2NC(=O)c2cccc(S(=O)(=O)N(C)C)c2)n1 | inconclusive: 0.1 µM [inhibitor, partial curve, poor fit]
44 | COc1cc(NC(=O)CN2C(=O)NC(c3ccccc3)(c3ccccc3)C2=O)c(C)cc1[N+](=O)[O-] | inconclusive: 11.2 µM [activator, partial curve]
45 | CCc1nn(CC(=O)NCCc2ccc(OC)cc2OC)c(=O)c2cc3occc3n12 | inactive

From entry 30 up to 33, as listed above:
Row | Structure (SMILES) | Potency
30 | CCc1ccccc1NC(=O)CN(C)C(=O)Cn1ncc(Cl)c(Cl)c1=O | inconclusive: 14.1 µM [inhibitor, single point]
31 | O=C(CSc1nc2ccccc2c(=O)[nH]1)Nc1ccccc1N1CCOCC1 | inactive
32 | COc1ccc2c3c(c(=O)oc2c1OCC(N)=O)CCCC3 | inactive
33 | Cc1cc(C)c(S(=O)(=O)Nc2ccnc(-c3cccnc3)n2)c(C)c1 | inconclusive: 35.5 µM [activator, single point]
